Reference: US5821070
The exact form of at least one protein or probe is not confirmed. For some of these results: A negative result means that nothing was seen under these conditions. For some of these results: Where cells or extracts were used, other partners may take part.

Tests used:
[1] = test system: E2F (partially purified, HeLa) (Homo sapiens); assay: competition with a labelled probe; details: mutated site stated not to bind E2F; purified native protein; variant of two E2F sites, wild type
[2] = test system: E2F (partially purified, HeLa) (Homo sapiens); assay: EMSA; details: positive control; purified native protein; label: 32P (Klenow fill-in)
GST-Ap15 = assay: EMSA; details: 200 ng; protein in a lysate after overexpression; protein details: GST; label: 32P (Klenow fill-in)
[3] = test system: GST-Ap9 (G protein beta-like); assay: EMSA; details: 200 ng; protein in a lysate after overexpression; protein details: GST; label: 32P (Klenow fill-in)

Sequence	binding result [1]	binding result [2]	binding result (GST-Ap15)	binding result [3]
TTTAGCGCGCGCTAAA (double strand) [mutated E2F sites]	no binding	–	–	–
TTTCGCGCGCGCGAAA (double strand) [two E2F sites, wild type]	–	binds	no binding	no binding
